Results are given in words; binding and its absence hold for the method and conditions named. Binding seen in cells or lysates may run through a third protein. A yes stands for co-enrichment or nearness to the bait. Other partners may have been found.
Target: FAM172A bait of the BioID2-based screen
Test: proximity labelling

Binder	binding
Nucleoporin NUP-93 (protein, UniProt Q8BJ71 1-819) MDTEGFGELLQQAEQLAAETEGISELPHVERNLQEIQQAGERLRSRTLTRTSQETADVKASVLLGSRGLDISHISQRLESLSAATTFEPLEPVKDTDIQGFLKNEKDNALLSAIEESRKRTFGMAEEYHRESMLVEWEQVKQRILHTLLASGEDALDFTQESEPSYIGDVNPPGRSSLDSIEMAYARQIYIYNEKIVSGHLQPNLVDLCASVAELDDKSISDMWAMVKQMTDVVLTPATDALKSRSSVEVRMDFVKQALGYLEQSYKNYTLVTVFGNLHQAQLGGVPGTYQLVRSFLNIKLPAPSPGLQDGEVEGHPVWALIYYCMRCGDLLAASQVVSRAQHQLGEFKTWFQEYMNSKDRRLSPATENKLRLHYRRALRNNTDPYKRAVYCIIGRCDITDNQSEVADKTEDYLWLKLNQVCFDDDGTSSPQDRLTLSQFQKQLLEDYGESHFTVNQQPFLYFQVLFLTAQFEAAIAFLFRMERLRCHAVHVALVLFELKLLLKSSGQSAQLLSHEPGDPPCMRRLNFVRLLMLYTRKFESTDPREALQYFYFLRDEKDSQGENMFLRCVSELVIESREFDMILGKLENDGSRKPGVIDKFTSDTKPIINKVASVAENKGLFEEAAKLYDLAKNADKVLELMNKLLSPVVPQISAPQSNKERLKNMALSIAERYRAQGISANKFVDSTFYLLLDLITFFDEYHSGHIDRAFDIIDRLKLVPLNQESVEERVAAFRNFSDEIRHNLSEVLLATMNILFTQFKRLKGTSPSSATRPQRVIEDRDSQLRSQARALITFAGMIPYRTSGDTNARLVQMEVLMN	binds
Nucleoporin NUP-155 (protein, UniProt Q99P88 1-1391) MPSVLGSMMVASTSAAASLQEALENAGRLIDRQLQEDRMYPDLSELLMVSAPNSPTVSGMSDMDYPLQGPGLLSVPSLPEISTIRRVPLPPELVEQFGHMQCNCMMGVFPPISRAWLTIDSDIFMWNYEDGGDLAYFDGLSETILAVGLVKPKAGIFQPHVRHLLVLATPVDIVILGLSYANVQTGSGILNDSMCGGMQLLPDPLYSLPTDNTYLLTITSTDNGRIFLAGKDGCLYEVAYQAEAGWFSQRCRKINHSKSSLSFLVPSLLQFTFSEDDPIVQIEIDNSRNILYTRSEKGVIQVYDLGHDGQGMSRVASVSQNAIVSAAGNIARTIDRSVFKPIVQIAVIESSESLDCQLLAVTHAGVRLYFSTCPFRQPLARPNTLTLVHVRLPPGFSASSTVEKPSKVHKALYSKGILLMTASENEDNDILWCVNHDTFPFQKPMMETQMTTRVDGHSWALSAIDELKVDKIITPLNKDHIPITDSPVVVQQHMLPPKKFVLLSAQGSLMFHKLRPVDQLRHLLVSNVGGDGEEIERFFKLHQEDQACATCLILACSTAACDREVSAWATRAFFRYGGEAQMRFPATLPTPSNVGPILGSPMYSSSPVPSGSPYPNPSSLGTPSHGAQPPTMSTPMCAVGSPAMQAASMSGLTGPEIVYSGKHNGICIYFSRIMGNIWDASLVVERVFKSSNREITAIESSVPVQLLESVLQELKGLQEFLDRNSQFSGGPLGNPNTTARVQQRLVGFMRPENGNTQQMQQELQRKFQEAQLSEKISLQAIQQLVRKSYQALALWKLLCEHQFSVIVGELQKEFQEQLKITTFKDLVIRDKEVTGALIASLINCYIRDNAAVDGISLHLQDTCPLLYSTDDAVCSKANELLQRSRQVQSKTERERMLRESLKEYQKISNQVDLPSVCAQYRQVRFYEGVVELSLTAAEKKDPQGLGLHFYKHGEPEEDVVGLQTFQERLNSYKCITDTLQELVNQSKAAPQSPSVPKKPGPPVLSSDPNMLSNEEAGHHFEQMLKLAQRSKDELFSIALYNWLIQADLADKLLQIASPFLEPHLVRMARVDQNRVRYMDLLWRYYEKNRSFSSAARVLSKLADMHSTEISLQQRLEYIARAILSAKSSTAISSIAADGEFLHELEEKMEVARIQLQIQETLQRQYSHHSSVQDAISQLDSELMDITKLYGEFADPFKLAECKLAVIHCAGYSDPILVHTLWQDIIEKELNDSVALSSSDRMHALSLKLVLLGKIYAGTPRFFPLDFIVQFLEQQVCTLNWDVGFVIQTMNEIGVPLPRLLEVYDQLFKSRDPFWNRVKSPLHLLDCIHVLLTRYVENPSLVLNCERRRFTNLCLDAVCGYLVELQSMSSSVAVQAITGNFKSLQAKLERLH	binds
